Data published in publication PMC9856072, “Complexed Crystal Structure of the Dihydroorotase Domain of Human CAD Protein with the Anticancer Drug 5-Fluorouracil” (Biomolecules, 2023).
These are yes or no findings as the source states them, for the method shown. Some entries that bind do so weakly or less than the wild type.

Target: dihydroorotase domain of human CAD protein (huDHOase) (human) (UniProt P27708)
Experiment: crystal structure; huDHOase co-crystallised with malate (pH 6.0, 1.64 Å) or with 5-FU (pH 6.5, 1.97 Å); space group C222(1), one molecule per asymmetric unit; dimer A-A' built by crystal symmetry and selected through PISA; both purified

binding: binds
B1: dihydroorotase domain of human CAD protein (huDHOase) (domain or fragment, UniProt P27708 1456-1846)
chain: MTSQKLVRLPGLIDVHVHLREPGGTHKEDFASGTAAALAGGITMVCAMPNTRPPIIDAPALALAQKLAEAGARCDFALFLGASSENAGTLGTVAGSAAGLKLYLNETFSELRLDSVVQWMEHFETWPSHLPIVAHAEQQTVAAVLMVAQLTQRSVHICHVARKEEILLIKAAKARGLPVTCEVAPHHLFLSHDDLERLGPGKGEVRPELGSRQDVEALWENMAVIDCFASDHAPHTLEEKCGSRPPPGFPGLETMLPLLLTAVSEGRLSLDDLLQRLHHNPRRIFHLPPQEDTYVEVDLEHEWTIPSHMPFSKAHWTPFEGQKVKGTVRRVVLRGEVAYIDGQVLVPPGYGQDVRKWPQGAVPQLPPSAPATSEMTTTPERPRRGIPGLPD
modifications: carbamylated lysine at 1556 (Kcx1556)
